Measurements: PubChem BioAssay (EPA / NIEHS)
Values joined by “and” are separate entries in the source; they are usually repeats but may differ in a detail not shown here. Equal entries are not always repeated. Inconclusive results, whose numbers are uncertain, are shown with a selection of clear calls. For some assays here: Where the call is inconclusive, the potency comes from a doubtful curve fit. Active and inactive are the calls of the source. Rule for the calls: active = hit-call score of the fitted dose curve at least 0.9, where 1 is the maximum; inconclusive = response in the unintended direction; inactive = score below 0.9.

Sequences of proteins named here, by UniProt entry; tags and fusion partners are left off. A change or cut given only in a name is not applied to a line headed by its entry.
UniProt P19793: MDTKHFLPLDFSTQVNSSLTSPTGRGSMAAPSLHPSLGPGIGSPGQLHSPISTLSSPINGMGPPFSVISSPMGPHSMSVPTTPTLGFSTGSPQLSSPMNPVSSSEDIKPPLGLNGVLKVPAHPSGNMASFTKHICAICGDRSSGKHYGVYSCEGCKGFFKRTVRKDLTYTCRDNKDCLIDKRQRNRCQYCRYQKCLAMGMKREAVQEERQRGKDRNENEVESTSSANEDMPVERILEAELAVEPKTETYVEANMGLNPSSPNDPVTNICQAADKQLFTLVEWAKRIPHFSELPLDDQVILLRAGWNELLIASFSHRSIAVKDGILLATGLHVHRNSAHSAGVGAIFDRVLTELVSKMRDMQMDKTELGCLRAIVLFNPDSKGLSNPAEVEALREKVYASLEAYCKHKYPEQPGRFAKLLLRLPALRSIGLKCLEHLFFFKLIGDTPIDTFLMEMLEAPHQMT
UniProt P04637, whole entry, looked up: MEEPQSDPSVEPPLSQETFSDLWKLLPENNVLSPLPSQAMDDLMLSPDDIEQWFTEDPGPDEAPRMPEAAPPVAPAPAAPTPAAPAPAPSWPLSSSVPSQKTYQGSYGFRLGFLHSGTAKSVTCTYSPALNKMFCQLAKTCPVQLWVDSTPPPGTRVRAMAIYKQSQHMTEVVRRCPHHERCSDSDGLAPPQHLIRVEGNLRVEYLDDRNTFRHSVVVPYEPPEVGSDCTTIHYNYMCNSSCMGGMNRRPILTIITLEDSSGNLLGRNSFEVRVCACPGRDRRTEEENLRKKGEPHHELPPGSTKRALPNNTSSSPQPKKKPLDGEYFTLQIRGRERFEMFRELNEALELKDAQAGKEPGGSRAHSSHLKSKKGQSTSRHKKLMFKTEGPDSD

How the values were obtained:
[1] = molecular target: Retinoic acid receptor RXR-alpha (Homo sapiens) (UniProt P19793); assay: OT_NURR1_NURR1RXRa_0480: Odyssey Thera (OT) 8-hour HEK293T Protein Complementation Assay for Nurr1/retinoid X receptor (RXR) (AID 2283385)
Method in brief: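 Interaction of Nurr1 with RXRα read as reconstituted reporter fluorescence in a HEK293T fragment-complementation system, 8 h post-treatment; increase over DMSO baseline analysed.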

[2] = molecular target: Retinoic acid receptor RXR-alpha (Homo sapiens) (UniProt P19793); assay: OT_NURR1_NURR1RXRa_1440: Odyssey Thera (OT) 24-hour HEK293T Protein Complementation Assay for Nurr1/retinoid X receptor (RXR) (AID 2283386)
Method in brief: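 Gain in fluorescence, fitted relative to DMSO, reflects Nurr1–RXRα association in HEK293T cells after 24 h dosing. Bait and prey are each linked to a reporter-protein fragment that reassembles on interaction.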

[3] = ATG_XTT_Cytotoxicity: Cytotoxicity Assessment in the Attagene TRANS-FACTORIAL HepG2 Assay (AID 2283584);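 for AC50: XTT signal for cell number as viability in transfected HepG2 cells; cells exposed to compound for 24 h before reading; active means loss of viability signal versus DMSO baseline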
Method in brief: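 HepG2 cells transiently transfected with GAL4-UAS multiple reporter units, dosed 24 h; cytotoxicity read by XTT as loss of signal versus DMSO baseline.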

[4] = TOX21_p53_BLA_p3_viability: Viability Assessment in the Tox21 HCT-116 p53 Agonism Beta-lactamase Assay, Phase 3 (AID 2283593);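 note: cells exposed to compound for 16 h before reading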
Method in brief: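 HCT116 cells, 4000/well, dosed 5 h after plating by pin transfer (217-fold dilution from DMSO stock) and incubated 16 h at 37C, 5% CO2. Viability read as ATP luminescence with CellTiter-Glo after 30 min at room temperature.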

[5] = molecular target: Cellular tumor antigen p53 (Homo sapiens) (UniProt P04637); assay: TOX21_p53_BLA_p3_ratio: Tox21 HCT-116 p53 Agonism Beta-lactamase Assay, Ratio, Phase 3 (AID 2283596)
Method in brief: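 Cells were seeded at 4000/well, rested 5 h at 37C, then dosed with DMSO compound solutions (217-fold dilution) for 16 h. CCF4-AM substrate was loaded for 2 h at room temperature, and the 460/530 nm emission ratio was fitted for gain of signal versus DMSO.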

[6] = TOX21_p53_BLA_p4_viability: Viability Assessment in the Tox21 HCT-116 p53 Agonism Beta-lactamase Assay, Phase 4 (AID 2283597);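 note: hits lower the luminescence signal meaning cytotoxicity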
Method in brief: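 4000 HCT116 cells per well; 5 h attachment; compounds from DMSO, 217-fold dilution; 16 h at 37C. Then CCF4-AM, 2 h RT, followed by CellTiter-Glo, 30 min RT, luminescence. Decrease = cytotoxicity.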

[7] = molecular target: Cellular tumor antigen p53 (Homo sapiens) (UniProt P04637); assay: TOX21_p53_BLA_p4_ratio: Tox21 HCT-116 p53 Agonism Beta-lactamase Assay, Ratio, Phase 4 (AID 2283601)
Method in brief: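 HCT-116 p53 beta-lactamase reporter cells (4000/well) preincubated 5 h, then compound (217-fold dilution of DMSO stock) for 16 h at 37C. CCF4-AM substrate added 2 h at room temperature; 460/530 nm emission ratio fitted upward versus DMSO.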

[8] = TOX21_p53_BLA_p2_viability: Viability Assessment in the Tox21 HCT-116 p53 Agonism Beta-lactamase Assay, Phase 2 (AID 2283591);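 note: actives lower the ATP signal meaning cytotoxicity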
Method in brief: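 HCT116 p53-bla cells, 4000/well, dosed after 5 h plating (217-fold dilution of DMSO stocks) and incubated 16 h at 37C. Viability taken as cellular ATP by CellTiter-Glo luminescence after 30 min RT; signal loss marks cytotoxicity.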

[9] = molecular target: Cellular tumor antigen p53 (Homo sapiens) (UniProt P04637); assay: TOX21_p53_BLA_p2_ratio: Tox21 HCT-116 p53 Agonism Beta-lactamase Assay, Ratio, Phase 2 (AID 2283592)
Method in brief: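 First, HCT116 reporter cells settle for 5 h at 37C. Next, DMSO compound solutions are pinned in (217-fold dilution) and left 16 h. Finally, CCF4-AM substrate is loaded 2 h at room temperature and the 460/530 nm ratio read.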

[10] = molecular target: Cellular tumor antigen p53 (Homo sapiens) (UniProt P04637); assay: TOX21_p53_BLA_p5_ratio: Tox21 HCT-116 p53 Agonism Beta-lactamase Assay, Ratio, Phase 5 (AID 2283599)
Method in brief: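 HCT-116 p53-bla cells (4000/well) plated 5 h, dosed with compound (217-fold DMSO dilution) for 16 h at 37 C; CCF4-AM substrate 2 h at room temperature. Activity is the 460/530 nm emission ratio (405 nm excitation), fitted in gain-of-signal direction versus DMSO.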

[11] = TOX21_p53_BLA_p5_viability: Viability Assessment in the Tox21 HCT-116 p53 Agonism Beta-lactamase Assay, Phase 5 (AID 2283600)
Method in brief: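 Decreased CellTiter-Glo luminescence denotes lost viability. Exposure: 16 h at 37C, 5% CO2, with compounds from DMSO stocks diluted 217-fold in wells of 4000 cells.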

## CN(C)CCCN
[1]
  AC50: inconclusive: 9.92 µM
[2]
  outcome: inactive
[3]
  AC50: inconclusive: 100 µM
[4]
  AC50: inconclusive: 78.6 µM and inconclusive: 46.5 µM
[5]
  outcome: inactive
[6]
  outcome: inactive
[7]
  outcome: inactive

## CCCCc1ccc2ccccc2c1S(=O)(=O)O
[1]
  AC50: inconclusive: 2.5 µM
[2]
  AC50: inconclusive: 47.2 µM
[3]
  AC50: inconclusive: 94.5 µM

## CCO[Si](CCCN)(OCC)OCC
[1]
  AC50: inconclusive: 50 µM
[2]
  AC50: inconclusive: 50 µM
[3]
  AC50: inconclusive: 100 µM
[8]
  AC50: inconclusive: 46.2 µM
[9]
  AC50: inconclusive: 46.1 µM
[4]
  AC50: inconclusive: 46.1 µM and inconclusive: 46.2 µM
[6]
  outcome: inactive
[10]
  AC50: inconclusive: 46.2 µM
[11]
  outcome: inactive
[7]
  AC50: inconclusive: 46.2 µM
  outcome: inactive

## CC(C)(C)c1cc(C(C)(C)C)c(O)c(C(C)(C)C)c1
[1]
  AC50: active: 84.3 µM and active: 77.2 µM
[2]
  AC50: active: 85 µM and inconclusive: 1.24 µM
[3]
  AC50: inconclusive: 5.84 µM and inconclusive: 100 µM
[8]
  outcome: inactive
[6]
  AC50: inconclusive: 3.15 µM
[10]
  AC50: inconclusive: 46.1 µM
[11]
  AC50: inconclusive: 46.1 µM
  outcome: inactive
[7]
  AC50: inconclusive: 46.1 µM

## O=C(C(Cl)Cl)N1CCOC12CCCCC2
[1]
  outcome: inactive
[2]
  outcome: inactive
[3]
  outcome: inactive
[8]
  outcome: inactive
[9]
  AC50: inconclusive: 75.9 µM
[4]
  AC50: inconclusive: 46.1 µM
[6]
  outcome: inactive
[10]
  AC50: inconclusive: 46.1 µM
[11]
  AC50: inconclusive: 46.1 µM
[7]
  AC50: inconclusive: 46.1 µM

## CC1(C)C(=O)NC(=O)N1CO
[1]
  outcome: inactive
[2]
  AC50: inconclusive: 50 µM
[3]
  outcome: inactive
[8]
  outcome: inactive
[9]
  AC50: inconclusive: 46.1 µM
[4]
  AC50: inconclusive: 46.1 µM
[6]
  AC50: inconclusive: 46.1 µM
[10]
  outcome: inactive
[11]
  outcome: inactive
[7]
  outcome: inactive

## Cc1cc(C)n(CO)n1
[1]
  AC50: inconclusive: 0.601 µM
[2]
  AC50: inconclusive: 50 µM
[3]
  outcome: inactive
[8]
  outcome: inactive
[9]
  AC50: inconclusive: 75.5 µM
[6]
  AC50: inconclusive: 46.1 µM

## CCCC(=O)OCC
[1]
  AC50: inconclusive: 50 µM
[2]
  AC50: inconclusive: 50 µM
[3]
  AC50: inconclusive: 0.0901 µM
[8]
  AC50: inconclusive: 1.28 µM
[4]
  outcome: inactive
[6]
  AC50: inconclusive: 46.1 µM
[11]
  AC50: inconclusive: 0.0198 µM
[7]
  AC50: inconclusive: 46.1 µM

## ClC1=C(Cl)C(Cl)(Cl)C(Cl)=C1Cl
[1]
  AC50: inconclusive: 50 µM
[2]
  AC50: inconclusive: 30.3 µM
[3]
  outcome: inactive
[8]
  AC50: inconclusive: 46.3 µM
[9]
  AC50: inconclusive: 46.3 µM
[4]
  AC50: active: 5.7 µM and active: 3.42 µM
[5]
  AC50: active: 19.2 µM and active: 2.22 µM
[10]
  AC50: inconclusive: 46.3 µM
[11]
  AC50: inconclusive: 3.08 µM
  outcome: inactive
[7]
  AC50: inconclusive: 46.3 µM
  outcome: inactive

## Cc1cc(Cc2cc(C)cc(C(C)(C)C)c2O)c(O)c(C(C)(C)C)c1
[1]
  AC50: inconclusive: 30.1 µM
[2]
  AC50: inconclusive: 14 µM
[3]
  AC50: active: 74.7 µM
[8]
  AC50: active: 10.8 µM and active: 10.5 µM
[4]
  AC50: active: 19.1 µM and active: 20.2 µM
[5]
  AC50: active: 44.8 µM and active: 57.1 µM
[6]
  AC50: active: 12 µM and active: 19.2 µM
[11]
  AC50: active: 17.7 µM and active: 16.7 µM
[7]
  AC50: active: 24.2 µM and active: 48.1 µM

## O=C(OCc1ccccc1)c1ccc(O)cc1
[1]
  outcome: inactive
[2]
  AC50: active: 69.9 µM
[3]
  AC50: inconclusive: 100 µM
[5]
  outcome: inactive
[11]
  AC50: inconclusive: 23 µM

## CC(=O)Oc1c(C)c(C)c2c(c1C)CC[C@@](C)(CCC[C@H](C)CCC[C@H](C)CCCC(C)C)O2
[1]
  AC50: inconclusive: 50 µM
[2]
  AC50: inconclusive: 50 µM
[3]
  AC50: inconclusive: 100 µM
[4]
  AC50: inconclusive: 46.1 µM and inconclusive: 23 µM and inconclusive: 0.524 nM
  outcome: inactive
[6]
  AC50: inconclusive: 23 µM
[10]
  AC50: inconclusive: 23 µM and inconclusive: 15.7 µM
[7]
  AC50: inconclusive: 46.1 µM and inconclusive: 15.7 µM
